# From US20240117067A1
# These are yes or no findings as the source states them, for the method shown. Some entries that bind do so weakly or less than the wild type.
# T1: recombinant human EpCAM extracellular domain (ECD) (human) (UniProt P16422)
# T1 sequence (looked up): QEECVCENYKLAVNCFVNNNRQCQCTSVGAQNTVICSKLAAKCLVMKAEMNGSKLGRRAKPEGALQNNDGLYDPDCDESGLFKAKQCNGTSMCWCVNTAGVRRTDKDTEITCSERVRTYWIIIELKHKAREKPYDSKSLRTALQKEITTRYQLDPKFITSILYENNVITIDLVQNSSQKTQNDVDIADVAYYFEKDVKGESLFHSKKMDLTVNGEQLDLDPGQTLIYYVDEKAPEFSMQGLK
# T2: human EpCAM expressed on cells (Colo205 cells, 293 cells, CHO cells) (human) (UniProt P16422)
# T2 sequence (looked up): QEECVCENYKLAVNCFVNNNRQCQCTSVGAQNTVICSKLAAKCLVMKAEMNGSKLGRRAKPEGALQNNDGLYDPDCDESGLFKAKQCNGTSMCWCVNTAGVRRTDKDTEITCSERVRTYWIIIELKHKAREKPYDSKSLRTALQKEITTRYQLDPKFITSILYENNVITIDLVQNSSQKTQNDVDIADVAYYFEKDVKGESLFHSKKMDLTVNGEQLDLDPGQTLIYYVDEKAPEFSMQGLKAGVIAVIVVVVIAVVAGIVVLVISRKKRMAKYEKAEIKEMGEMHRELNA
# What was measured:
# [1] = target: T1, recombinant human EpCAM extracellular domain (ECD) (human); experiment: screening of hybridoma clones
# [2] = target: T2, human EpCAM expressed on cells (Colo205 cells, 293 cells, CHO cells) (human); experiment: screening of hybridoma clones on CHO cells expressing human EpCAM
binder,measurement,setting,value
"anti-EpCAM antibody expressed by hybridoma clone 12C10F12 (antibody, V domains shown) VH: QVQLQQSGAELAKPGASVKVSCKASGYTFTSYWMHWVKQRPGQGLEWIGYIRPSTGYTEYNQKFKDKATLTADKSSSTAYMQLSSLTFEDSAVYYCGRGDNWVGFANWGQGTLVTVSA VL: QIVLTQSPAIMSASLGEEIALTCSASSSISYMHWYQQKSGTSPKLLIYSTSNLASGVPSRFSGSGSGTFYSLTISSVEAEDAADYFCHQWSTYHTFGSGTKLEIK",binding,[1],binds
same,binding,[2],binds
